# Where “and” joins values, the source holds several entries; their conditions need not be identical. Identical values can stand only once. The list shows a part of the results. Further columns of the screen follow, without active or inactive calls. The list favours compounds with an active or inconclusive main result. Words in brackets tell the shape of the fitted curve; partial curves, single points and poor fits give uncertain potencies.
# Experiment: qHTS Assay for Lipid Storage Modulators in Drosophila S3 Cells;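 on cell number change: cells counted by Cell Tracker Red CMTPX staining in the red channel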
# Settings: BODIPY lipid droplet fluorescence, 18-24 h; for cell number change: measured here: cell count max response, cells fed with added oleic acid
# Summary of the method: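 Laser-scanning cytometry quantifies lipid droplet accumulation (500–530 nm total intensity; droplet/cell object ratio) in oleic acid-fed (400 uM added) Drosophila S3 cells treated with a concentration series. 20 uM Triacsin C defined 100% inhibition.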
# [1] = measured here: lipid fluorescence (Fed channel) AC50, cells fed with added oleic acid
# [2] = measured here: cell number channel AC50, cells fed with added oleic acid
Structure (SMILES),AC50 [1],cell number change,AC50 [2]
Cc1ccc(S(=O)(=O)NCCC(=O)Nc2ccc(S(=O)(=O)NC(C)C)cc2)cc1,"1.03 µM [rising, full curve]",–,–
Cc1ccccc1OCc1nnc(SCC(=O)N2c3ccccc3Sc3ccc(Cl)cc32)o1,"20.6 µM [falling, partial curve, poor fit]",-19.5%,–
CCc1nnc(NC(=O)C2CC(=O)N(C3CCCCC3)C2)s1 (stereo not drawn),–,-31%,–
O=C(COC(=O)c1ccc(Cl)nc1)NCCNC(=O)COC(=O)c1ccc(Cl)nc1,"0.184 µM [falling, full curve, poor fit]",6.39%,–
CC(C)CCNC(=O)COC(=O)c1cc(Br)c(Br)s1,–,-12.3%,–
COc1ccc2c(c1)C(=O)N(c1ccccc1OC)C(=O)C2,–,19.5%,–
CCN(CC)CCNC(=O)c1c(O)c2cccc3c2n(c1=O)CCC3,–,49.2%,"4.11 µM [rising, partial curve]"
Cc1ccc(N2CC(C(=O)N/N=C/c3sccc3C)CC2=O)cc1 (stereo not drawn),"14.6 µM [rising, partial curve, poor fit]",-23.1%,"2.31 µM [falling, single point]"
O=C(c1ccc(F)c(S(=O)(=O)N2CCOCC2)c1)N1CCN(c2ccc(F)cc2)CC1,"6.51 µM [rising, single point]",3.01%,–
O=c1[nH][nH]c(C(F)(F)F)c1C=Nc1cccc(Cl)c1,–,19%,–
COc1ccc(/C=C/C(=O)c2ccc(C)c([N+](=O)[O-])c2)cc1O,–,-20.4%,–
CCOc1ccc(Nc2nc(NCC3CCCO3)c3ccccc3n2)cc1 (stereo not drawn),"18.4 µM [falling, single point]",-74.9%,"16.4 µM [falling, partial curve]"
COc1ccc(-c2cc(-c3ccc(OC)cc3)nc(-c3ccc4c(c3)NC(=O)CO4)c2)cc1,"0.291 µM [rising, partial curve, poor fit]",-18.2%,–
COc1cc(NC(=O)CSCc2ccc(Cl)cc2Cl)c(C(=O)O)cc1OC,"6.51 µM [rising, single point]",-3.3%,–
CCC(Sc1ccc2nnc(-c3cccnc3)n2n1)C(=O)OC (stereo not drawn),–,-24.4%,–
CC(C)(C#N)N([O-])C=C[N+](=O)C(C)(C)C#N,"4.11 µM [falling, full curve]",-22.4%,"0.0517 µM [falling, full curve, poor fit]"
C=C(C)COc1ccc2c3c(c(=O)oc2c1OCC(=C)C)CCC3,–,-0.917%,–
COc1ccccc1CN(Cc1nc2ccccc2c(=O)[nH]1)S(=O)(=O)c1ccc(C)cc1,"6.51 µM [rising, partial curve]",24%,"2.31 µM [rising, full curve, poor fit]"
COc1ccccc1N(CC(=O)Nc1ccc(Cc2ccncc2)cc1)S(=O)(=O)c1ccccc1,"35.5 µM [falling, single point]",–,–
Cc1ccc(NC(=O)CN(C)CC(=O)N(CC(C)C)c2c(N)n(CC(C)C)c(=O)[nH]c2=O)c(C)c1,"6.51 µM [rising, full curve]",26.3%,–
Cc1ccc(/C=N/NC(=O)CSc2nc3ccccc3n2Cc2ccccc2)o1,"0.0651 µM [rising, full curve]",6.98%,"6.51 µM [rising, single point]"

Structure (SMILES),AC50 [1],cell number change,AC50 [2]
Cc1ccc(NC(=S)N/N=C2\CC3CC=CC23)c(C)c1 (stereo not drawn),"18.4 µM [falling, single point]",-21.3%,–
COc1ccc(OC)c(CCNC(=O)CC2(CC3=NS(=O)(=O)c4ccccc4N3)CCCC2)c1,–,-26.3%,–
Cc1ccc(-c2cc(C(=O)O)c3cc(Br)ccc3n2)s1,–,-34% and 3.55%,–
Cc1c(NC(=O)c2nn3c(C(F)(F)F)cc(-c4ccccc4)nc3c2Cl)c(=O)n(-c2ccccc2)n1C,–,34%,"13 µM [rising, single point]"
O=C(COc1ccc(Cl)c2cccnc12)N1CCOCC1,"6.51 µM [rising, partial curve, poor fit]",2.81%,–
CCOc1cc(N2CCOCC2)c(OCC)cc1NC(=O)c1cc(-c2ccco2)nc2ccccc12,"32.6 µM [falling, single point]",-58.3%,"18.4 µM [falling, partial curve]"
Cc1cc(OCC(=O)OCC(=O)N2CC(C)CC(C)C2)ccc1Cl (stereo not drawn),"4.11 µM [falling, single point]",19.7%,"4.11 µM [falling, single point]"
Cc1cc(Cn2nnc3ccccc32)c(O)c(C(C)(C)C)c1,"29.1 µM [falling, single point]",-39.2%,–
CC(=O)N1N=C(c2ccco2)CC1c1ccco1 (stereo not drawn),–,10.9%,–
O=C(Nc1ccnn1C1CCN(C(=O)c2cc(Cl)ccc2F)CC1)C1CCOC1 (stereo not drawn),"6.51 µM [falling, partial curve, poor fit]",-3.62%,–
COC(=O)c1sccc1NC(=O)Nc1ccccc1OC,–,11%,–
CCC1=Nc2cc(C(=O)NCc3ccco3)ccc2Sc2ccccc21,"29.1 µM [falling, single point]",–,–
COc1ccc(C)cc1NC(=O)CCCNC(=O)Cn1cnc2sc(C)c(C)c2c1=O,–,24.3%,–
COc1ccc(/C=C2\SC(=S)N(CC(=O)NCCO)C2=O)cc1,"29.1 µM [falling, partial curve, poor fit]",-70.5%,"32.6 µM [falling, partial curve, poor fit]"
CCN(C(=O)COC(=O)c1c(C)nsc1NC)c1ccccc1,"6.51 µM [falling, partial curve, poor fit]",35.4%,"7.31 µM [rising, partial curve, poor fit]"
O=C(NC1CCN(C(=O)N2CCOCC2)CC1)c1ccccc1,"29.1 µM [falling, partial curve]",-109%,"16.4 µM [falling, partial curve]"
Cc1ccc(CCNCc2c(C(=O)O)c(C)n(-c3ccccc3)c2C)cc1,–,-19.4%,–
COc1ccc(C2C(C(=O)c3ccco3)=C(O)C(=O)N2CCN2CCOCC2)cc1 (stereo not drawn),–,13.2%,–
COc1ccc(OC)c2sc(N(CCN(C)C)C(=O)/C=C/c3cccs3)nc12,"29.1 µM [falling, single point]",–,"0.164 µM [rising, full curve, poor fit]"
O=C(Cc1cn2ccsc2n1)Nc1ccccn1,–,15.7%,–
O=C(OCCCN1CCCC1)C1(c2ccccc2)CCCC1,"16.4 µM [falling, partial curve]",-49%,"4.11 µM [falling, full curve]"

Structure (SMILES),AC50 [1],cell number change,AC50 [2]
O=C(Nc1ccc(N2CCN(C(=O)c3ccco3)CC2)cc1)c1ccc(F)cc1,"0.184 µM [rising, full curve, poor fit]",-15.6%,–
Cc1ccc(C(=O)NNC(=S)NC(=O)COc2ccccc2)cc1,"2.31 µM [falling, partial curve]",-0.387%,–
O=C(NCCCNC(=O)c1cnccn1)c1ccc(Cl)c(Cl)c1,–,-6.58%,–
Cc1nn(Cc2ccc(F)cc2Cl)c(C)c1[N+](=O)[O-],–,17.2%,–
CN(CC(=O)Nc1ccc(Cl)c(C(F)(F)F)c1)C(=O)Cc1cccs1,–,37.9%,"23.1 µM [rising, partial curve, poor fit]"
Cc1sc2nc(COC(=O)C(NC(=O)c3ccc(Cl)cc3Cl)C(C)C)[nH]c(=O)c2c1C (stereo not drawn),"16.4 µM [rising, single point]",25.3%,–
Cc1ccnc(NC(=O)CCC(=O)N(CC(=O)NCc2ccc(F)cc2)c2cccc(F)c2)c1,–,3.91%,–
Cc1ccc(Cl)c2sc(NC(=O)C3=COCCO3)nc12,–,-18.1%,–
Cc1cc(C(=O)N/N=C/c2ccc(-c3cccc(Cl)c3)o2)n[nH]1,–,-27.6%,–
Cc1ccc(S(=O)(=O)Nc2ccccc2F)cc1C(=O)N1CCN(c2ccccc2O)CC1,"16.4 µM [falling, partial curve]",-24.2%,–
COC(=O)c1cc(S(=O)(=O)NCCCN2CCCC2=O)cn1C,"29.1 µM [rising, single point]",23%,–
Cn1c(SCC2CCCO2)nnc1-c1ccncc1 (stereo not drawn),–,7.82%,–
CCOC(=O)C1C(=O)NC(N2CCN(c3ccccc3)CC2)=NC1c1ccccc1 (stereo not drawn),"16.4 µM [falling, partial curve]",12.8%,"0.517 µM [falling, full curve, poor fit]"
COc1ccc(/C=C2\SC(=S)N(CCCC(=O)Nc3ccccc3C(=O)O)C2=O)cc1OC,–,-0.54%,–
Cc1nc(OCC(=O)c2ccc(Cl)cc2)c(C#N)c2c1COC(C)(C)C2,"9.2 µM [rising, partial curve, poor fit]",–,"2.06 µM [rising, partial curve]"
Cc1cc2c3c(c1)C(C)(c1ccccc1)CC(C)(C)N3C(=O)C21C(C#N)=C(N)OC2=C1C(=O)CC(C)(C)C2 (stereo not drawn),"25.9 µM [falling, single point]",-70.5%,"29.1 µM [falling, single point]"
Cc1cc(NC(=O)CSCC(=O)N(C)Cc2ccc(Cl)cc2Cl)no1,"8.2 µM [rising, partial curve, poor fit]",23.6%,–
CC1C/C(=N/Nc2ccc([N+](=O)[O-])cc2[N+](=O)[O-])CC(C)(C)C1 (stereo not drawn),"20.6 µM [falling, single point]",-33.3%,"23.1 µM [falling, single point]"
N#Cc1ccc(CSc2nnc3ccccn23)cc1,–,-35.7%,"32.6 µM [falling, single point]"
O=C(CCn1c(=O)c2cccn2c2ccc(F)cc21)NCCc1ccccc1,"0.146 µM [falling, full curve, poor fit]",-14.2%,–

# Reference: PubChem BioAssay AID2685 (National Center for Advancing Translational Sciences (NCATS), 2010)
